Data reported in PubChem BioAssay AID1671190 (National Center for Advancing Translational Sciences (NCATS), 2021).
The whole screen tested about 580,000 compounds, of which about 6,100 (1.1%) were called active. Inconclusive results, whose numbers are uncertain, are shown with a selection of clear calls. Calls come from the whole dose curve; as a rule, active = well fitted inhibition curve with a large enough effect; inconclusive = small, poorly fitted or top-dose-only effect, or another doubt; inactive = no such curve, though single readings can be large or run the other way. Potencies of inconclusive entries are doubtful fits and often do not repeat.

Protein sequences, listed by entry. Tags and fused reporters are not part of them. Lines headed by an entry give the natural chain unless they say otherwise; changes in a name come on top.
UniProt P18054: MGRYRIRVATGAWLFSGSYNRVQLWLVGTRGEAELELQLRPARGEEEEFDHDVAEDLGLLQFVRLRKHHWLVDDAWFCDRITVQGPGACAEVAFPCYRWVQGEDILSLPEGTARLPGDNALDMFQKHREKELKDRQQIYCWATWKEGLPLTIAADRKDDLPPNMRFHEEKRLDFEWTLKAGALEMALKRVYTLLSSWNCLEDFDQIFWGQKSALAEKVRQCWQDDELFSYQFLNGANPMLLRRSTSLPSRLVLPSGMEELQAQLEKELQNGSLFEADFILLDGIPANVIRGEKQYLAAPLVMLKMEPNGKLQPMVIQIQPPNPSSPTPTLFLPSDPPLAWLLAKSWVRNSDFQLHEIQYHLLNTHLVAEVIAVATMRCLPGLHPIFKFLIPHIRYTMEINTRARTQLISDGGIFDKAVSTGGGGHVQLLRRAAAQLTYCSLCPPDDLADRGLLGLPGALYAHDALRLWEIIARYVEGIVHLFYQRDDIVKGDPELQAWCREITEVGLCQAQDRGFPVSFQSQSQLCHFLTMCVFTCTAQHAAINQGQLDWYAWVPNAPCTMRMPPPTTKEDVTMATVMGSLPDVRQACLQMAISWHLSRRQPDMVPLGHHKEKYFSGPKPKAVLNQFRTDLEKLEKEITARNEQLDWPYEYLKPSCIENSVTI

These compounds were tested against Polyunsaturated fatty acid lipoxygenase ALOX12 (Homo sapiens) (UniProt P18054) (assay: Primary qHTS assay for inhibitors of human arachidonate 12S-lipoxygenase (ALOX12): Round 2). Details: purified 12hLO, xylenol orange hydroperoxide absorbance; series mostly up to 108 µM.
In short: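 Purified human 12hLO at 150 nM in 25 mM Hepes, 0.01% Triton X-100, pH 7.0, preincubated 15 min at room temperature with compound. Reaction started with 40 uM arachidonic acid, 30 min at room temperature. Hydroperoxide measured by Fe-xylenol orange, 573/405 nm absorbance ratio.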
Potency is the fitted concentration of half-maximal effect.

| SMILES | Potency |
| --- | --- |
| CCOc1ccc(CCNC(=O)c2c(C)oc3ncn(CC(C)C)c(=O)c23)cc1 | inconclusive: 126 µM [inhibitor, partial curve, poor fit] |
| O=C(O)c1cc(NS(=O)(=O)c2cccc3ccccc23)ccc1O | inconclusive: 39.8 µM [inhibitor, partial curve, poor fit] |
| CCN1CCN(C2=C(NS(=O)(=O)c3ccc(Br)cc3)C(=O)c3ccccc3C2=O)CC1 | inconclusive: 100 µM [inhibitor, single point] |
| O=C(O)CCN1C(=O)c2ccncc2C1=O | inconclusive: 5.01 µM [inhibitor, full curve, poor fit] |
| N#Cc1cccc(NC(=S)NCCc2ccccc2)c1 | inactive |
| Cc1nc(-c2c3n(c(=O)n(CC(=O)Nc4ccc(F)c(Cl)c4)c2=O)CCCC3)no1 | inactive |
| Cc1oc(-c2ccccc2)nc1CSCC(=O)Nc1ccc(F)c(F)c1 | inactive |
| CC(=O)NS(=O)(=O)c1ccc(N=c2ssc3c2-c2cc(C)ccc2NC3(C)C)cc1 | inconclusive: 79.4 µM [inhibitor, partial curve, poor fit] |
| CN(CCc1ccccc1)C(C(=O)Nc1ccc2c(c1)OCCO2)c1ccnc2ccccc12 (stereo unspecified) | inconclusive: 25.1 µM [inhibitor, full curve] |
| CC(NC(=O)Cn1nc(C(N)=O)c2ccccc2c1=O)c1ccccc1 (stereo unspecified) | active: 35.5 µM |
| CCc1nn2c(=O)cc(CNc3cccc(C(=O)NCC(F)(F)F)c3)nc2s1 | inconclusive: 0.398 µM [inhibitor, full curve, poor fit] |
| CCO[C@H]1OC(C(=O)O)=C[C@@H](c2ccc3c(c2)OCO3)[C@@H]1CCCO | inconclusive: 44.7 µM [inhibitor, partial curve, poor fit] |
| NC1=NC(=O)/C(=C\c2cccnc2)S1 | inconclusive: 0.355 µM [inhibitor, full curve, poor fit] |
| CC[C@]1(C(=O)OC)[C@H]2C(=O)N(C)C(=O)[C@H]2[C@H]2CN=C(SCc3ccc(Cl)cc3)N21 | inconclusive: 50.1 µM [inhibitor, single point] |
| Cc1ccc(NC(=S)Nc2ccc(F)cc2)c(C)c1 | inconclusive: 50.1 µM [inhibitor, partial curve, poor fit] |
| CCc1cccc(Nc2nc(N)c(C(=O)c3ccccc3)s2)c1 | inconclusive: 1.78 µM [inhibitor, full curve, poor fit] |
| CC(c1ccccc1)N1CCC(CNC(=S)Nc2cccc(Cl)c2)C1 (stereo unspecified) | inconclusive: 63.1 µM [inhibitor, partial curve, poor fit] |
| Cc1cc(Cl)ccc1NC(=S)Nc1ccccn1 | inconclusive: 7.08 µM [inhibitor, full curve, poor fit] |
| O=C(O)c1cccc(Cn2c(Cl)c(/C=N/NC(=O)c3cccc(O)c3)sc2=O)c1 | inactive |
| O=C(NCCC(=O)N1CCN(c2cccc(Cl)c2)CC1)c1ccc(Br)cc1 | inactive |
| COc1cccc(NC(=O)NNC(=O)CCc2ccc(O)c(O)c2)c1 | inconclusive: 3.55 µM [inhibitor, full curve, poor fit] |

Some of the entries so far, as tab-separated lines:
SMILES	Potency
CC(=O)NS(=O)(=O)c1ccc(N=c2ssc3c2-c2cc(C)ccc2NC3(C)C)cc1	inconclusive: 79.4 µM [inhibitor, partial curve, poor fit]
CN(CCc1ccccc1)C(C(=O)Nc1ccc2c(c1)OCCO2)c1ccnc2ccccc12 (stereo unspecified)	inconclusive: 25.1 µM [inhibitor, full curve]
CC(c1ccccc1)N1CCC(CNC(=S)Nc2cccc(Cl)c2)C1 (stereo unspecified)	inconclusive: 63.1 µM [inhibitor, partial curve, poor fit]

More records follow.

| SMILES | Potency |
| --- | --- |
| Cc1cc(C)c2c(CN3CCCCC3)cc(=O)oc2c1 | inactive |
| Cc1ccc(OCC(=O)N(Cc2ccc(Cl)cc2)Cc2ccco2)cc1C | inconclusive: 89.1 µM [inhibitor, partial curve, poor fit] |
| CCC(NC(=O)c1ccc(COC)cc1)c1ccccc1OC(F)F (stereo unspecified) | inactive |
| COc1ccc(OC)c(C(=O)c2c(C)oc3cc(Br)c(O)c(CN(C)C)c23)c1 | inconclusive: 22.4 µM [inhibitor, partial curve, poor fit] |
| CCc1c(C)sc(NC(=O)c2ccccc2F)c1C#N | inconclusive: 63.1 µM [inhibitor, partial curve, poor fit] |
| NC(c1ccccc1)c1cccnc1 (stereo unspecified) | inconclusive: 28.2 µM [inhibitor, single point] |
| C[C@@H]1CN(c2ccc(N3CCNC[C@H]3C)cc2C#N)CCN1Cc1ccccc1 | inconclusive: 50.1 µM [inhibitor, partial curve, poor fit] |
| Cc1noc2c1C(c1ccc(N(C)C)cc1)C1=C(CC(C)(C)CC1=O)N2 (stereo unspecified) | inactive |
| CC(=O)C1=C(O)C(=O)N(c2ccc(C)cc2)C1c1ccccn1 (stereo unspecified) | inconclusive: 35.5 µM [inhibitor, partial curve, poor fit] |
| O=C(Cn1ccc2ccc(Br)cc21)NCCCO | inactive |
| CCC(C)NS(=O)(=O)c1ccc(N)cc1 (stereo unspecified) | inconclusive: 0.178 µM [inhibitor, full curve, poor fit] |
| CN1CCN(C(=S)NC(=O)/C=C/c2cccs2)CC1 | inconclusive: 28.2 µM [inhibitor, partial curve, poor fit] |
| CCOc1ccc(OCC(=O)NCCN2CCN(S(=O)(=O)c3ccc(C)cc3)CC2)cc1 | inconclusive: 44.7 µM [inhibitor, partial curve, poor fit] |
| CCCCNC(=O)C[C@@H]1C[C@@]2(C(=O)OCC)CCCC=C2N(CCc2ccc(OC)c(OC)c2)C1=O | inconclusive: 112 µM [inhibitor, single point] |
| CNC(=O)c1cn2c(n1)CN(C(C)=O)CC2 | inconclusive: 126 µM [inhibitor, partial curve, poor fit] |
| COc1ccc(N(Cc2cc(CN3CCOCC3)cs2)S(=O)(=O)c2cccc(C#N)c2)cc1 | inconclusive: 112 µM [inhibitor, partial curve, poor fit] |
| Cc1c(-c2ccc(Br)cc2)nc2ccccc2c1C(=O)O | inconclusive: 44.7 µM [inhibitor, partial curve, poor fit] |
| C[C@H]1[C@@H]2[C@@H](O)C([C@H](C)C(=O)NCc3ccccc3)CC[C@@]2(C)CC[C@@H]1NC(=O)C1CCCCC1 (stereo partly specified) | inconclusive: 20 µM [inhibitor, full curve] |
| O=C(NC(=S)Nn1cnnc1)c1cccc(Br)c1 | inconclusive: 0.708 µM [inhibitor, full curve, poor fit] |
| COc1cc2cc(CN(Cc3cccnc3)C(=O)Nc3ccccc3)c(=O)[nH]c2cc1OC | inactive |
